{
  "source": "PubChem BioAssay AID540276",
  "about": "(National Center for Advancing Translational Sciences (NCATS), 2011)",
  "note": "Where “and” joins values, the source holds several entries; their conditions need not be identical. Equal entries are not always repeated. Among all 300,000 compounds or so, about 5,400 (1.8%) were called active. The shares of active, inactive and inconclusive entries below differ from those in the screen. Calls follow the shape of the full dose curve; tested in HEK293 cells. Potencies beside an inconclusive call are fits to weak or partial responses and may not hold up. % is scaled to controls: 0 for no effect and ±100 for the full control effect; potency is read from the fitted curve at half-maximal effect.",
  "data": [
    {"test": "qHTS for inhibitors of binding or entry into cells for Marburg Virus", "conditions": "Marburg virus pseudotyped entry inhibition, cell reporter; activity change, negative = inhibition: at 37.8 µM (top of the series) unless noted", "values": [
      {"smiles": "CCc1ccc(NC(=O)CN2CCN(c3ccc(OC)cc3)CC2)cc1", "activity change, negative = inhibition": "inactive: 5.67% [at 46.1 µM]"},
      {"smiles": "Cn1nc(C(C)(C)C)cc1C(=O)NCc1ccc(N2CCCC2=O)cc1", "Potency": "inconclusive: 1.64 µM [inhibitor, partial curve, poor fit]"},
      {"smiles": "N#Cc1ccc(C(=O)CSc2n[nH]c(=O)n2Cc2ccco2)cc1", "activity change, negative = inhibition": "inactive: -9.05%"},
      {"smiles": "CC1CC(C)CN(C(=O)C2CCCN(c3ncnc4c3nc3n4CCCCC3)C2)C1", "note": "(centres undefined)", "Potency": "inconclusive: 10 µM [inhibitor, partial curve, poor fit]"},
      {"smiles": "Cc1cccnc1NC(N)=S", "Potency": "inconclusive: 3.55 µM [activator, single point]"},
      {"smiles": "Cc1cc(C)c(S(=O)(=O)NCC(=O)NCc2ccccn2)c(C)c1", "Potency": "inconclusive: 22.4 µM [activator, single point]"},
      {"smiles": "Cc1cc(C)c([C@@H]2C[C@H]3CN(C4CCCC4)C(=O)[C@]34CCCN24)c(-n2cccn2)c1", "Potency": "inconclusive: 35.5 µM [inhibitor, single point]"},
      {"smiles": "CCOC(=O)c1[nH]c(C(=O)O)c(OC(=O)CC)c1C", "activity change, negative = inhibition": "inactive: 5.78% [at 46.1 µM]"},
      {"smiles": "Cn1cccc1C(=O)OCC(=O)Nc1ccc2c(c1)OCO2", "activity change, negative = inhibition": "inactive: 10.6% [at 46.1 µM]"},
      {"smiles": "O=S(=O)(NCCSc1nnnn1-c1ccccc1)c1cccs1", "Potency": "inconclusive: 0.282 µM [activator, full curve, poor fit]"},
      {"smiles": "COc1ccc(/C=N/NC(=O)c2ccn[nH]2)cc1COc1ccc(Cl)cc1Cl", "Potency": "inconclusive: 18.3 µM [inhibitor, single point]"},
      {"smiles": "COc1ccc(C(=O)Nc2cc(OC)c(NC(=O)c3ccco3)cc2OC)cc1", "Potency": "inconclusive: 6.51 µM [inhibitor, partial curve]"},
      {"smiles": "CC(C)Nc1ccc(Nc2ccccc2)cc1", "Potency": "inactive"},
      {"smiles": "Cc1ccnc(NC(=O)CS(=O)(=O)c2ccccc2)c1", "Potency": "inconclusive: 14.1 µM [activator, single point]"},
      {"smiles": "COc1ccc(-n2c(C)cc(C(=O)COC(=O)Cc3n[nH]c(=O)c4ccccc34)c2C)cc1", "Potency": "inconclusive: 11.2 µM [inhibitor, partial curve, poor fit]"},
      {"smiles": "CCOc1cc(CNC(C)C)c(Cl)cc1OCC(=O)NCCc1ccccc1", "Potency": "inconclusive: 35.5 µM [inhibitor, single point]"},
      {"smiles": "Cc1ccccc1NS(=O)(=O)c1ccc(C(=O)NNC(=O)c2ccccc2O)cc1", "Potency": "inconclusive: 0.891 µM [activator, partial curve]"},
      {"smiles": "Cc1cccc2nc(Cn3c(=O)n(CCCC(=O)NCc4ccco4)c(=O)c4ccccc43)cc(=O)n12", "Potency": "inconclusive: 35.5 µM [inhibitor, single point]"},
      {"smiles": "O=C(Nc1nnc(C2CCCCC2)s1)c1ccco1", "Potency": "inconclusive: 0.562 µM [activator, full curve, poor fit]"},
      {"smiles": "CCc1ccc(NC(=S)NC2CC3CCCC(C2)N3Cc2cccs2)cc1", "note": "(centres undefined)", "Potency": "inconclusive: 5.17 µM [inhibitor, partial curve, poor fit]"},
      {"smiles": "Fc1ccccc1NC(=S)NCc1ccc2c(c1)OCO2", "Potency": "inconclusive: 11.2 µM [activator, partial curve, poor fit]"},
      {"smiles": "Cc1ccccc1NS(=O)(=O)c1cc(C(=O)NCCSC2CCCCC2)ccc1C", "Potency": "inconclusive: 20.6 µM [inhibitor, single point]"},
      {"smiles": "COc1ccccc1CNC(=O)C1CC(c2ccccc2[N+](=O)[O-])=NO1", "note": "(centres undefined)", "activity change, negative = inhibition": "inactive: -0.232%"},
      {"smiles": "O=C(c1ccc2ncsc2c1)N1CCCCC1", "activity change, negative = inhibition": "inactive: 13.8% [at 46.1 µM]"},
      {"smiles": "O=C(NC1CCCCC1)C(c1ccco1)N(Cc1cccnc1)C(=O)C1COc2ccccc2O1", "note": "(centres undefined)", "Potency": "inactive and inconclusive: 13 µM [inhibitor, partial curve, poor fit]"},
      {"smiles": "CC1(C)CC(=O)C(CC2=C(O)CC(C)(C)CC2=O)C(=O)C1", "activity change, negative = inhibition": "inactive: 9.23%"},
      {"smiles": "O=C(C1CCCN(S(=O)(=O)c2ccc([N+](=O)[O-])cc2)C1)N1CCCCC1", "note": "(centres undefined)", "Potency": "inconclusive: 7.94 µM [inhibitor, partial curve, poor fit]"},
      {"smiles": "COc1nc(Nc2ccc(OC)c(Cl)c2)nc(OC)n1", "activity change, negative = inhibition": "inactive: 0.309%"},
      {"smiles": "CCn1nnnc1SCC(=O)Nc1ccc(OC)cc1", "activity change, negative = inhibition": "inactive: -18.4% [at 46.1 µM]"},
      {"smiles": "CCN(CC)S(=O)(=O)c1ccc(Cl)c(NC(=O)COc2ccc(OC)cc2[N+](=O)[O-])c1", "Potency": "inconclusive: 35.5 µM [activator, single point]"},
      {"smiles": "FC(F)(F)c1cc(-c2ccccc2)nc(NCC2CCCO2)n1", "note": "(centres undefined)", "Potency": "inconclusive: 0.259 µM [inhibitor, partial curve, poor fit]"},
      {"smiles": "O=C(CC1SC(=Nc2ccccc2)N(CCO)C1=O)Nc1ccccc1", "note": "(centres undefined)", "Potency": "inconclusive: 11.2 µM [inhibitor, partial curve, poor fit]"},
      {"smiles": "COc1ccc(C(=O)Nc2ccc(N3CCN(C(=O)c4ccccc4)CC3)cc2)cc1[N+](=O)[O-]", "Potency": "inconclusive: 22.4 µM [inhibitor, single point]"},
      {"smiles": "Cn1cc(Cl)c(C(=O)Nc2nc3ccccc3s2)n1", "Potency": "active: 8.2 µM"},
      {"smiles": "O=C1C=C(Nc2ccc(O)cc2)CC(c2ccco2)C1", "note": "(centres undefined)", "Potency": "inconclusive: 0.0058 µM [inhibitor, full curve, poor fit]"},
      {"smiles": "O=C(CN(Cc1ccc(Cl)cc1)S(=O)(=O)c1ccccc1)NCC1CCCO1", "note": "(centres undefined)", "Potency": "inconclusive: 11.2 µM [inhibitor, partial curve, poor fit]"},
      {"smiles": "CCC(=O)NC(=S)Nc1ccc(-c2nc3ccc(C)cc3s2)cc1", "Potency": "inconclusive: 0.316 µM [activator, partial curve, poor fit]"},
      {"smiles": "CCOC(=O)c1cnc2c(c(C3CC3)nn2C)c1N1CCOCC1", "Potency": "inconclusive: 0.708 µM [activator, single point]"},
      {"smiles": "CN(C)C(CNC(=O)CCc1c[nH]c2ccccc12)c1ccccc1", "note": "(centres undefined)", "Potency": "inconclusive: 8.91 µM [inhibitor, partial curve, poor fit]"},
      {"smiles": "Cc1ccc(-n2ncc3c(=O)n(-c4ccc(C)c(C)c4)c(C)nc32)cc1", "Potency": "inconclusive: 17.8 µM [inhibitor, single point]"},
      {"smiles": "O=C(Nc1ccc2nc(SCC(=O)N3CCc4ccccc43)sc2c1)c1cccc(F)c1", "activity change, negative = inhibition": "inactive: -8.46% [at 46.1 µM]"},
      {"smiles": "O=C(CSc1nnnn1C1CCCC1)N1CCCCC1", "Potency": "inconclusive: 35.5 µM [inhibitor, single point]"},
      {"smiles": "Cc1ccc(OCC(=O)NNC(=O)Nc2ccc(Cl)cc2)c(Br)c1", "Potency": "inconclusive: 1.26 µM [inhibitor, full curve]"},
      {"smiles": "O=C(NCCN1C(=O)S/C(=C\\c2ccccc2)C1=O)c1cc(S(=O)(=O)N2CCOCC2)c(Cl)cc1Cl", "Potency": "inconclusive: 35.5 µM [inhibitor, single point]"},
      {"smiles": "CC1(C)CC(NC(=O)c2cccc(Cl)c2)CC(C)(C)N1", "Potency": "inconclusive: 11.2 µM [activator, partial curve, poor fit]"},
      {"smiles": "O=C(CCCCC(=O)OC1CCCCC1)OC1CCCCC1", "Potency": "inconclusive: 2.82 µM [activator, full curve]"},
      {"smiles": "O=C(NCCCN1CCCC1)C1CCN(C(=O)c2cc3sccc3n2Cc2ccc(F)cc2)CC1", "Potency": "inconclusive: 23.1 µM [inhibitor, single point]"},
      {"smiles": "Cc1ccccc1N1CCN(S(=O)(=O)C[C@]23CCC(CC2NC(=O)[C@@H](N)CCS(C)(=O)=O)C3(C)C)CC1", "note": "(some centres undefined)", "Potency": "inconclusive: 12.6 µM [inhibitor, partial curve]"},
      {"smiles": "Cc1cc2cc3c(=O)[nH]c(=O)nc-3n(CC(O)C(O)C(O)CO)c2cc1C", "note": "(centres undefined)", "Potency": "inconclusive: 12.6 µM [activator, partial curve, poor fit]"},
      {"smiles": "N#CCSc1nccc(-c2cc(Cl)sc2Cl)n1", "Potency": "inconclusive: 5.01 µM [activator, single point]"},
      {"smiles": "CCOC(=O)c1c(C)nc2ccccc2c1-c1ccccc1", "activity change, negative = inhibition": "inactive: -1.01%"},
      {"smiles": "COc1cc(NC(=O)COc2cccc(C)c2C)ccc1NC(=O)c1ccco1", "activity change, negative = inhibition": "inactive: -15.5% [at 46.1 µM]"},
      {"smiles": "CCOc1cc(NC(=S)NCCCN(C)C)c(OCC)cc1NC(=O)c1cccs1", "Potency": "inconclusive: 10 µM [inhibitor, partial curve, poor fit]"},
      {"smiles": "O=C(NCc1ccccc1Cl)c1ccc(CSc2nc3ccncc3[nH]2)cc1", "Potency": "inconclusive: 14.6 µM [inhibitor, partial curve, poor fit]"},
      {"smiles": "CC(C)NCC(O)(c1ccc(Cl)cc1)c1ccc(Cl)cc1", "Potency": "inconclusive: 20 µM [inhibitor, partial curve, poor fit]"},
      {"smiles": "CCOc1ccc(CN(C)CC(=O)c2c(N)n(Cc3ccccc3)c(=O)n(CC)c2=O)cc1OC", "Potency": "inconclusive: 35.5 µM [inhibitor, single point]"},
      {"smiles": "O=C(Nc1ccc(S(=O)(=O)NCc2ccccc2)cc1)c1ccccc1[N+](=O)[O-]", "Potency": "inconclusive: 1.26 µM [inhibitor, partial curve, poor fit]"},
      {"smiles": "Cc1ccc(OCc2nc(-c3ccc(C(=O)N4CCN(c5cccc(C(F)(F)F)c5)CC4)cc3)oc2C)cc1", "activity change, negative = inhibition": "inactive: -4.22% [at 46.1 µM]"},
      {"smiles": "CCCCN(C(=O)CSc1nnc2ccccn12)c1c(N)n(Cc2ccccc2)c(=O)[nH]c1=O", "Potency": "inconclusive: 0.562 µM [activator, partial curve, poor fit]"},
      {"smiles": "c1ccc2c(c1)nc(N1CCOCC1)c1c3ccccc3[nH]c21", "Potency": "inconclusive: 6.51 µM [inhibitor, partial curve, poor fit]"},
      {"smiles": "C=CCN1C(c2ccccc2)=CS/C1=C(\\C#N)c1nnc2n1CCCCC2", "Potency": "inconclusive: 1.03 µM [inhibitor, partial curve, poor fit]"},
      {"smiles": "COc1ccc(Br)cc1CNC(C)c1ccccc1", "note": "(centres undefined)", "Potency": "inconclusive: 11.6 µM [inhibitor, partial curve, poor fit]"},
      {"smiles": "CCOc1ccc2c(c1)sc1nc(=O)n(-c3ccc(Cl)c(Cl)c3)c(=O)n12", "activity change, negative = inhibition": "inactive: -2.29% [at 46.1 µM]"},
      {"smiles": "CC(=O)N(C(C)=O)c1ncnc2c1c(-c1ccc(Cl)cc1)nn2C(C)(C)C", "Potency": "inconclusive: 35.5 µM [inhibitor, single point]"}
    ]}
  ]
}
